Measured values taken from PMC4821239, “Molecular architecture of the Dam1 complex–microtubule interaction” (Open Biology, 2016).
No constants are given. Whether binding was seen depends on the method and setting. Binding calls can cover weak binding; strength is not graded here.

Molecular target: β-tubulin (porcine)
Test: cross-linking; EDC with Sulfo-NHS, Dam1 complex assembled on taxol-stabilized microtubules in BRB80, pellet washed, room temperature 1 h, digested in solution, mass spectrometry; both purified

B1: Duo1 (natural protein, budding yeast, UniProt P53168 1-247, looked up)
chain: MSEQSQLDDSTIDKLIPQIFNEMRSNLNNTTNKFPKSTGGGASDNISANSNSIRSFNSITTQSLLKESESLDKITAMIKNVTAALKNNLPVYVNQVHEVCKSTNSILDSWINIHSQAGYIHKLMSDQTYLKLINDRLHNENVNTNDEDGSTLHNVIALKKKEILDLRQKLENRKGEKDAAPAKPPNQGLNPRYGVQSGRRPVPSAGISNNGRVRKTHVPASKRPSGIPRVTNRWTKPTASSSRKMFR
notes: Duo1, subunit of the budding yeast Dam1 complex; Subunit inside the recombinant 10-subunit complex; also called Duo1 subunit; source: expressed and purified as part of the Dam1 complex as described [3]
binding: binds

B2: Dam1 (protein, UniProt P53267 1-343)
chain: MSEDKAKLGTTRSATEYRLSIGSAPTSRRSSMGESSSLMKFADQEGLTSSVGEYNENTIQQLLLPKIRELSDSIITLDSNFTRLNFIHESLADLNESLGSLLYGIMSNSWCVEFSQAPHDIQDDLIAIKQLKSLEDEKNNLVMELSNMERGIKRKKDEQGENDLAKASQNKQFNQPLFPSSQVRKYRSYDNRDKRKPSKIGNNLQVENEEDYEDDTSSEASFVLNPTNIGMSKSSQGHVTKTTRLNNNTNSKLRRKSILHTIRNSIASGADLPIENDNVVNLGDLHPNNRISLGSGAARVVNGPVTKNRNSMFSGRAERKPTESRHSVAKKTEKKINTRPPFR
binding: binds
